Test results published in article PMC6747720.

Chains of the proteins cited; added tags and fusions are not shown. Lines headed by an entry give the natural chain unless they say otherwise; changes in a name come on top. Residues count along the entry.
UniProt P05107, residues 23-700: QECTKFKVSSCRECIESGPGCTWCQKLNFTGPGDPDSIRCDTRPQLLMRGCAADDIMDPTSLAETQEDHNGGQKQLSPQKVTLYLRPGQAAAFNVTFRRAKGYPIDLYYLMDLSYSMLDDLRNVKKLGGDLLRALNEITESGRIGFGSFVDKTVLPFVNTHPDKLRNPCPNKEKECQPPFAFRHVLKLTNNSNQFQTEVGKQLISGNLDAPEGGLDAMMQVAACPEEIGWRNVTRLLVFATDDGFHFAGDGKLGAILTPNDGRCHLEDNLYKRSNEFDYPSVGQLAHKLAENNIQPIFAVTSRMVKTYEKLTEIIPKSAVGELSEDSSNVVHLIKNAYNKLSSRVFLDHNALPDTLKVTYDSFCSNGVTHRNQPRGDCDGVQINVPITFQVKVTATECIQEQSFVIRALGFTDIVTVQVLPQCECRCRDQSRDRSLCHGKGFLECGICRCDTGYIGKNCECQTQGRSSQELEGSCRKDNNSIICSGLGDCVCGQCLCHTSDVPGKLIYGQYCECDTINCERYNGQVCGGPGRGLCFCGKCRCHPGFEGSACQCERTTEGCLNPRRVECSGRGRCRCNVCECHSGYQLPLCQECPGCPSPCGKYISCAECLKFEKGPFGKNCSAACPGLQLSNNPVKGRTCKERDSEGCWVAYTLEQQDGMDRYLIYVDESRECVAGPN
UniProt P20702, residues 20-1107: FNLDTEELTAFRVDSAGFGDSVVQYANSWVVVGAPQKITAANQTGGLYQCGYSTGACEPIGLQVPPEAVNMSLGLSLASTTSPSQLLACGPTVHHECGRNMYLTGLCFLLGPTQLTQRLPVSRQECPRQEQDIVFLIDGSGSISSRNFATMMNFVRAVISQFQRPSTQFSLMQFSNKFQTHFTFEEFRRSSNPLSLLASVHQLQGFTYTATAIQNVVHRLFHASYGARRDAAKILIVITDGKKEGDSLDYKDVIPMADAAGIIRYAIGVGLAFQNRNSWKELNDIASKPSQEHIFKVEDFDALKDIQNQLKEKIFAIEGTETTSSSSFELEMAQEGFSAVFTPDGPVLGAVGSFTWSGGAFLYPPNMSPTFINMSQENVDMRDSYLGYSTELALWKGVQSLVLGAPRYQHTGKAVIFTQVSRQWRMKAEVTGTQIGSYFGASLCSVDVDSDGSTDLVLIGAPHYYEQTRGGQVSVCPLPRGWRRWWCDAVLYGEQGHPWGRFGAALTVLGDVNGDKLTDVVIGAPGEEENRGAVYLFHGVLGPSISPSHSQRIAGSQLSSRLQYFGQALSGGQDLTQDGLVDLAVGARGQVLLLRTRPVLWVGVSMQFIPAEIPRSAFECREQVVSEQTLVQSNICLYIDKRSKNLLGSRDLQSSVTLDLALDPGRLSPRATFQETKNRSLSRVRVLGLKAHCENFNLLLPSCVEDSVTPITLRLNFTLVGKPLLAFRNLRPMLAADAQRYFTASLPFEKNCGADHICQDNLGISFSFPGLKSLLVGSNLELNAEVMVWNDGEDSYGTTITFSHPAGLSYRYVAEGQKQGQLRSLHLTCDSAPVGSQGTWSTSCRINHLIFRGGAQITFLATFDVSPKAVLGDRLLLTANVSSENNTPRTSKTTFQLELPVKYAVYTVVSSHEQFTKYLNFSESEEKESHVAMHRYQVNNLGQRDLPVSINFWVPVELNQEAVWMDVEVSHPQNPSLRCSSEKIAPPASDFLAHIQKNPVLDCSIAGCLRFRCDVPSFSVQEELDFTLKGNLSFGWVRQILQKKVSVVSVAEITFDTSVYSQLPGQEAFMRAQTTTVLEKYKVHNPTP
UniProt P09983: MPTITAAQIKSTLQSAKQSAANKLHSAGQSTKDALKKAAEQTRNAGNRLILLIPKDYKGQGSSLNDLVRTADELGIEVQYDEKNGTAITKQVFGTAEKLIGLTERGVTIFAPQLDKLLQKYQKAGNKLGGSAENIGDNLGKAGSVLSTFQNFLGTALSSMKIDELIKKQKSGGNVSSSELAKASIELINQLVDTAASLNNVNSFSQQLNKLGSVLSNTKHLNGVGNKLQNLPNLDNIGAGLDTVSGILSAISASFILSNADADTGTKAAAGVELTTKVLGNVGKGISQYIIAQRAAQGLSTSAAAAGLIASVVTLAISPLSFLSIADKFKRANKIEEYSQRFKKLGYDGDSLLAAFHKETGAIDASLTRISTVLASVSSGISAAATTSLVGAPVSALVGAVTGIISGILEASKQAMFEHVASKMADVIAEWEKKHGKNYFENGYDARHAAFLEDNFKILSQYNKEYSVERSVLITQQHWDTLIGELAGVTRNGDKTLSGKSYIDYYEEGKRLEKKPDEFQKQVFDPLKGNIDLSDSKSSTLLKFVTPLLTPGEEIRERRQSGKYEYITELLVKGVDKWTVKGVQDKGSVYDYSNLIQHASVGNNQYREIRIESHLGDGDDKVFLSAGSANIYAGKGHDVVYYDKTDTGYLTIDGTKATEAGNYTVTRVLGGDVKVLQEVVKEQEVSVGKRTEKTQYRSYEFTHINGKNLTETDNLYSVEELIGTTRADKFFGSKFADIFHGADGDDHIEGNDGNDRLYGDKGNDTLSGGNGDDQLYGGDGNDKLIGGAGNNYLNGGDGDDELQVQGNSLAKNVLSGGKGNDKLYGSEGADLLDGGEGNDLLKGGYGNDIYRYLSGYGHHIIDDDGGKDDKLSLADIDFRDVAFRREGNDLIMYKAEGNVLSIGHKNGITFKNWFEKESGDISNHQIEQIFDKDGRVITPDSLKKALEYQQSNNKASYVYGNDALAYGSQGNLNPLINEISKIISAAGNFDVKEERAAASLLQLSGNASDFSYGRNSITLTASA

Tests used:
Assay in all cases: far-Western, overlay or dot blot; 500 ng recombinant integrin heterodimer per lane separated on a 4 to 20% gradient SDS-PAGE gel, transferred to nitrocellulose, blocked in 3% BSA-0.5% Tween 20 in PBS, probed with PEG-precipitated HlyA or LtxA at 1 μg/ml for 1 h at room temperature; bound toxin detected with anti-HlyA antibodies, integrin subunits with their own antibodies (near-infrared fluorescence); only the target purified
[1] = target: T1, integrin αL subunit (CD11a), as subunit of recombinant human integrin αLβ2 (human) (UniProt P20701)
T1 sequence: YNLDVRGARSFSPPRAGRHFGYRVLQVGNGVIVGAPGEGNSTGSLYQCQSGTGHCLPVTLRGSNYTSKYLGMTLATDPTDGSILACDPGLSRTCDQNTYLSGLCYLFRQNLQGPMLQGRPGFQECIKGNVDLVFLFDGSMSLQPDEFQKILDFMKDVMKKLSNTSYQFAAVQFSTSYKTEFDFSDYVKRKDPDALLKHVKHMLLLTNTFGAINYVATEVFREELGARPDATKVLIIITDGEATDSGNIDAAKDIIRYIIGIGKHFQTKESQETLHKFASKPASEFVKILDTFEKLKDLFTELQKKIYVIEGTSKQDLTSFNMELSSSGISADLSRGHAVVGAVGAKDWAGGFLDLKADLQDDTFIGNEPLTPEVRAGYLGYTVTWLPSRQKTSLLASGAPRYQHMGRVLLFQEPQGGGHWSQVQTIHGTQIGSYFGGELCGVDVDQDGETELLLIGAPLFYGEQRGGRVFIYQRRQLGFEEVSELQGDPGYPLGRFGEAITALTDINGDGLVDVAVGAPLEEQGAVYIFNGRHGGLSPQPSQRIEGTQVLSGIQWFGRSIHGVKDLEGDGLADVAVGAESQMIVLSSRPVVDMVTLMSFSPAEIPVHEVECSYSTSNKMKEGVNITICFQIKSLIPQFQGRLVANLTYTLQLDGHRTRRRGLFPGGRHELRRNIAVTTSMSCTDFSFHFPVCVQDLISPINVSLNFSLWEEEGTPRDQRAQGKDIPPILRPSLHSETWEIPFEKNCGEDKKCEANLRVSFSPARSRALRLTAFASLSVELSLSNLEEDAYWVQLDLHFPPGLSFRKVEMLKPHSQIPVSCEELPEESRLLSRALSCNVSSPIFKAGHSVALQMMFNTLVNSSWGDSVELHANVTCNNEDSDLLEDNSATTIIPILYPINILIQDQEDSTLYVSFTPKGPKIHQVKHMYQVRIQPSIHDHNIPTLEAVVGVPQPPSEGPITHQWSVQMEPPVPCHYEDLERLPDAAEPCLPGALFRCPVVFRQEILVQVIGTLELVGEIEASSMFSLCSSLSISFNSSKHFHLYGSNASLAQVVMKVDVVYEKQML

[2] = target: β2 integrin β subunit (CD18), as subunit of recombinant human integrin αLβ2, αMβ2 and αXβ2 (human) (UniProt P05107)
[3] = target: integrin αX subunit (CD11c), as subunit of recombinant human integrin αXβ2 (human) (UniProt P20702)

“Escherichia coli hemolysin (HlyA) (from UniProt P09983)” was tested, and the binding [1] was “no binding (tested: 1 μg/ml)”, the binding [2] was “binds” and the binding [3] was “no binding (tested: 1 μg/ml)”.

These are yes or no findings as the source states them, for the method shown. For part of these data: A result given as binding can be weak or reduced; the word gives no strength.
